Reference: PMC5412559

Biological target: T1, Toll-6-3×HA (Drosophila melanogaster) (UniProt Q9VUN0)
T1 sequence: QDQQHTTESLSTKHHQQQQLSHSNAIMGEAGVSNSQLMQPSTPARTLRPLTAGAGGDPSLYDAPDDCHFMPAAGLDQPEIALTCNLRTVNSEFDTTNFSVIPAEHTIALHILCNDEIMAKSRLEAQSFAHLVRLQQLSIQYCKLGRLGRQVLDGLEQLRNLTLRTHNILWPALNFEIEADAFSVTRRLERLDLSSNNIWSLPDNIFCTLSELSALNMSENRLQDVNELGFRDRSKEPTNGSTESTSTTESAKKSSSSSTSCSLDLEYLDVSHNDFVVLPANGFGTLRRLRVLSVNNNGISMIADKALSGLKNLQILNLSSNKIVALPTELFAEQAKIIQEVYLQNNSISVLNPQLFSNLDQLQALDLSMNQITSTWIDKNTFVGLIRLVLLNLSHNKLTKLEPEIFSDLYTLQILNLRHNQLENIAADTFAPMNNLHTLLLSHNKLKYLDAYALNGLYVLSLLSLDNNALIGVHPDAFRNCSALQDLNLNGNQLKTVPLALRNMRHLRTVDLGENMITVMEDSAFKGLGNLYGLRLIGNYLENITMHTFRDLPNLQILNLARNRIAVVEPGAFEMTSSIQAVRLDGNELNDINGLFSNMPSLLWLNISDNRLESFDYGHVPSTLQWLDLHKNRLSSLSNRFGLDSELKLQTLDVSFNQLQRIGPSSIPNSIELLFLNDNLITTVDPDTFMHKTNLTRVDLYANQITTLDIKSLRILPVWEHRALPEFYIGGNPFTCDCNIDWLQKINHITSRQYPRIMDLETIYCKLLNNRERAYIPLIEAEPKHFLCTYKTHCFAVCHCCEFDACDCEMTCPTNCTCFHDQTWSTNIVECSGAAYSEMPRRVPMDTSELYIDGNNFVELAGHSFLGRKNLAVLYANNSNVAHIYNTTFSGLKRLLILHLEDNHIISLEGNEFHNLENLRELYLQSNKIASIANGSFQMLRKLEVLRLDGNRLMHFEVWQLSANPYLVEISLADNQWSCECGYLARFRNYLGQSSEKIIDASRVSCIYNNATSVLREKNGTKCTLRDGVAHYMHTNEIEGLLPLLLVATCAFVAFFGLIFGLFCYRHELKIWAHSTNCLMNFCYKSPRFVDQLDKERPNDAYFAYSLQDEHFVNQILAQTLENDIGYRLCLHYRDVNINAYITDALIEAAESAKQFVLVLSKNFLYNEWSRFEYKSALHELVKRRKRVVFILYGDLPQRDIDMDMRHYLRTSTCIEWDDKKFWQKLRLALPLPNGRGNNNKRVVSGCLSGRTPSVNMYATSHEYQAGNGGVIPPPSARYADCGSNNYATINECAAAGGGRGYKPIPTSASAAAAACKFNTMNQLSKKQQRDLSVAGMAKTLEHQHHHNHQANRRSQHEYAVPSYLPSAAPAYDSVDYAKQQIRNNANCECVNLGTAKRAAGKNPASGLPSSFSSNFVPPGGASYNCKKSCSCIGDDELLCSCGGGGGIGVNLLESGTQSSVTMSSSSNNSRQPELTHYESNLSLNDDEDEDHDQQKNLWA
Assay: co-IP; S2 cells cotransfected with Toll-6-3×HA and Pro-TEV6HisV5-DNT1-CK-CTD, or Toll-7-3×HA and Pro-TEV6HisV5-DNT2-CK; which partner was precipitated is not told in the text (Fig. S3)

In the case of “Pro-TEV6HisV5-DNT1-CK-CTD (Drosophila melanogaster) (ligand)”, the binding is reported as “binds”.

These are yes or no findings as the source states them, for the method shown. In cells and extracts the contact can be indirect. Binding can be weak; no strength is given. Where a sequence is shown, tags or fusion partners need not be part of it.
